Patent US5190922A (priority 1991, dated 1993)

Assay: general procedure: Boc solid-phase peptide synthesis; Boc-DArg(N-guanidino-Tos)-Merrifield resin; EDC/HOBT or mixed anhydride (IBCF/NMM) for solution couplings
Conditions: coupling step

Row | Substance | step yield | difficulty met
1 | (N-Methyl)Phenylalanyl-Lysyl-Prolyl-{(2R)-2-Amino-3-cyclohexylpropanoyl}-Phenylalanyl-N-(4-Guanidinobutyl)amide | 12% yield | 
2 | (N-Methyl)Phenylalanyl-Lysyl-Prolyl-{(2R)-2-Amino-3-cyclohexylpropanoyl}-Phenylalanyl-N-{(2R/S)-2Phenylbutyl}amide | 70% | 
3 | (N-Methyl)Phenylalanyl-Lysyl-Prolyl-{(2R)-2-Amino-3-cyclohexylpropanoyl}-Phenylalanyl-NH2 | 74% | 
4 | (N-Methyl)Phenylalanyl-Lysyl-Prolyl-{(2R)-2-Amino-3-cyclohexylpropanoyl}-{(2S)-2-Amino-3-cyclohexylpropanoyl}-N-(4-Aminobutyl)amide | 63.5% | 
5 | (N-Methyl)Phenylalanyl-Lysyl-Prolyl-{(2R)-2-Amino-3-cyclohexylpropanoyl}-{(S)-(-)-2-Amino-3-phenyl-1-propanol} | 63% | 
6 | (N-Methyl)Phenylalanyl-Lysyl-prolyl-{(2R/S)-2-Amino-3-cyclohexylpropanoyl}- {(2R/S)-2-Amino-3-cyclohexyl-2-(5-guanidinopentyl)propanoyl}-N-(2-Phenethyl)amide |  | During the peptide coupling, the (2R)-2-Amino-3-cyclohexylpropanoyl residue racemized
7 | Cbz-Lysyl(N-epsilon-Boc)-Prolyl-{(2R)-2-Amino-3-cyclohexylpropanoyl}-{(2S)- 2-Amino-3-cyclohexylpropanoyl}-OEt | 97% | 
8 | N-Boc-(N-Methyl)Phenylalanyl-Lysyl(N-epsilon-Boc)-Prolyl{(2R)-2-Amino-3-cyclohexylpropanoyl}-{(2S)-2-Amino-3-cyclohexylpropanoyl}-OEt | 96% | 

Same assay, conditions: coupling step, acetate salt

Row | Substance | step yield [%]
9 | (N-Methyl)Phenylalanyl-Lysyl-Prolyl-{(2R)-2-Amino-3-cyclohexylpropanoyl}-{(2S)-2-Amino-3-cyclohexylpropanoyl}-N-(4-Guanidinobutyl)amide | 38

Same assay, conditions: late stage modification step

Row | Substance | step yield
10 | (N-Methyl)Phenylalanyl-Lysyl-Prolyl-{(2R)-2-Amino-3-cyclohexylpropanoyl}-N- (4-Aminobutyl)-N-(2-Phenethyl)amide | 37%
11 | (N-Methyl)Phenylalanyl-Lysyl-Prolyl-{(2R)-2-Amino-3-cyclohexylpropanoyl}-N- (4-Guanidinobutyl)-N-(2-Phenethyl)amide | 25%
12 | (N-Methyl)Phenylalanyl-Lysyl-Prolyl-{(2R)-2-Amino-3-cyclohexylpropanoyl}-Phenylalanyl Methyl ester | 55% yield
13 | (N-Methyl)Phenylalanyl-Lysyl-Prolyl-{(2R)-2-Amino-3-cyclohexylpropanoyl}-Phenylalanyl-Anilide | 57%
14 | (N-Methyl)Phenylalanyl-Lysyl-Prolyl-{(2R)-2-Amino-3-cyclohexylpropanoyl}-Phenylalanyl-N-(2-Amidinoethyl)amide | 18%
15 | (N-Methyl)Phenylalanyl-Lysyl-Prolyl-{(2R)-2-Amino-3-cyclohexylpropanoyl}-Phenylalanyl-N-(3-Cyanoethyl)amide | 43%
16 | (N-Methyl)Phenylalanyl-Lysyl-Prolyl-{(2R)-2-Amino-3-cyclohexylpropanoyl}-Phenylalanyl-N-{(2-Cyclohexyl-2-methyl)propyl}amide | 47%
17 | N-Boc-(N-Methyl)Phenylalanyl-Lysyl(N-epsilon-Boc)-Prolyl{(2R)-2-Amino-3-cyclohexylpropanoyl}-OH | 83%
18 | N-Boc-(N-Methyl)Phenylalanyl-Lysyl(N-epsilon-Boc)-Prolyl{(2R)-2-Amino-3-cyclohexylpropanoyl}-Phenylalanyl-OH | 99%
19 | N-Boc-(N-Methyl)Phenylalanyl-Lysyl(N-epsilon-Boc)-Prolyl{(2R)-2-Amino-3-cyclohexylpropanoyl}-{(2S)-2-Amino-3-cyclohexylpropanoyl}-OH | 95%

Same assay, conditions: late stage modification step, overall

Row | Substance | step yield [%]
20 | (N-Methyl)Phenylalanyl-Lysyl-Prolyl-{(2R)-2-Amino-3-cyclohexylpropanoyl}-{(2S)-2-Amino-3-cyclohexylpropanoyl}-N-(5-Guanidinopentyl)amide | 21
